This is an account of results in patent US8357733B2, “Processes for making silane, hydrophobated silica, silica masterbatch and rubber products” (Industrias Negromex, S.A. de C.V., priority 2008, dated 2013).

The data set in a line: Attempt to hydrophobate silica with the silane and coagulate masterbatch. The conditions noted are these: insoluble silane used to hydrophobate the silica.

For the compound `CCO[Si](CCCSSCCC[Si](OCC)(OCC)OCC)(OCC)OCC` [TESPD, bis-(3-triethoxysilylpropyl)-disulfide], the “Free silica in the coagulated masterbatch” value was “gross amounts of free silica”.
For `CO[Si](CCCSSCCC[Si](OC)(OC)OC)(OC)OC` [TMSPD, bis-(3-trimethoxysilylpropyl)-disulfide], the “Free silica in the coagulated masterbatch” value is recorded as “gross amounts of free silica”.
